# Test results from PMC7819943, “Rice protein-binding microarrays: a tool to detect cis-acting elements near promoter regions in rice”.
# Protein sequences, listed by entry. Tags and fused reporters are not part of them.
# UniProt Q0JBA9, entry or part of it: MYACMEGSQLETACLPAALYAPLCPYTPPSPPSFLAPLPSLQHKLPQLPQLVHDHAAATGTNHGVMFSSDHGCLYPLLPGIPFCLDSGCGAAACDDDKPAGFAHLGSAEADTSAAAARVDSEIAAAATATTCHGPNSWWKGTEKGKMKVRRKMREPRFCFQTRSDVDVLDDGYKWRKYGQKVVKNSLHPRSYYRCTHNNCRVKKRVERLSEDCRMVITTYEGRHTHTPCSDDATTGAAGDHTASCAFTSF
# The other results are listed elsewhere or left out.
# Target: OsWRKY34 (Oryza sativa, UniProt Q0JBA9 1-250)
# Assay: protein-binding microarray (RPBM); PBS, 2% BSA, 51.3 ng/ul salmon testes DNA, 50 uM zinc acetate, 200 nM TF, 25 C, 1 h; high values mean tight binding
# Conditions: protein: recombinant; tags: N-terminal polyhistidine and DsRed monomer fusion (pET32a); label: CyDye5-dUTP incorporated in the synthesized complementary strand; 3' TTTTT single-stranded linker to array surface; dsDNA, one strand shown
# In short: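 Binding signal is defined as the fluorescence intensity of each feature in arbitrary units, read on an Axon 4000B scanner. Transcription factors with N-terminal polyhistidine and DsRed fusions came from E. coli BL21-CodonPlus and were purified on Ni–NTA. They were incubated at 200 nM for 1 h at 25 °C on a custom Agilent array that had been made double-stranded with Cy5-dUTP, with 50 µM zinc acetate present, and the array was washed.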
row,Sequence,binding signal
1,TAGGCAATGCCCGCCGCTGATCTCTTCCTGTCCTTTTCCACGGAGTCACCTAGTGCAG,8410 fluorescence intensity (a.u.)
2,ACCTCACCCCTCTCTTTCTCTGTTTTCTCTCTCTGCTACTCGGAGTCACCTAGTGCAG,10600 fluorescence intensity (a.u.)
3,GGCCTTGTTCGGTTGGTCCGGGAATGACTGGGGTTGGGCTCGGAGTCACCTAGTGCAG,9210 fluorescence intensity (a.u.)
4,ACCGCCGCCGCCACACTTCCCCAGCCGCCGCCAACCGCCACGGAGTCACCTAGTGCAG,8230 fluorescence intensity (a.u.)
5,CCCACCTCAGCATCCGTCGTCGCTGTCTGCGCACCTCTGCCGGAGTCACCTAGTGCAG,9010 fluorescence intensity (a.u.)
6,CAACTCATATCTCTCGTTTTCCACGCGCACGCTTTTCAAACGGAGTCACCTAGTGCAG,10300 fluorescence intensity (a.u.)
7,CCCGTTTGTTATCCGTTCGCCCGCAACGCAACACGGCCACCGGAGTCACCTAGTGCAG,9480 fluorescence intensity (a.u.)
8,TTAAACTTAAAGCAGTTTGACTTCGATCAAAGTCAAAACACGGAGTCACCTAGTGCAG,10700 fluorescence intensity (a.u.)
9,TCCCGTGGTCTCGCCACCCCGTCGTTCCTGCCGCTCGCGCCGGAGTCACCTAGTGCAG,9080 fluorescence intensity (a.u.)
10,TGTTTTTCCTGTGTTTTGCAATCCTCTGTTTTACACTTACCGGAGTCACCTAGTGCAG,13000 fluorescence intensity (a.u.)
11,GCGGTTGACTTAATAGAGGGGCTATTCATATTGATGTTAACGGAGTCACCTAGTGCAG,8560 fluorescence intensity (a.u.)
12,TTTCCTTTTCTTTTTCTATTTATTTTTATGGGATATTTCGCGGAGTCACCTAGTGCAG,8680 fluorescence intensity (a.u.)
13,ATATATATATATATATATATATGTGTGTGTGTGTGTGTCCCGGAGTCACCTAGTGCAG,14500 fluorescence intensity (a.u.)
14,CATCCCTGCTTATTTCTGCCAGTTGCGTCGATTGGTATCTCGGAGTCACCTAGTGCAG,10400 fluorescence intensity (a.u.)
15,CCCAAGGAATTGTGCTTGCTCACCAAGACACGCCAGCTTCCGGAGTCACCTAGTGCAG,8510 fluorescence intensity (a.u.)
16,TCACCACATTGTGCTTTATTGCTTGTTTTCGATCTATCTACGGAGTCACCTAGTGCAG,10100 fluorescence intensity (a.u.)
17,ACGCTCTTCCCAATCGAGGTTAGTCTCCATCTTGCTGTTCCGGAGTCACCTAGTGCAG,8580 fluorescence intensity (a.u.)
18,TTGTTGGTCTCTCCATGACTCCACTTTTAAATGGATCTGCCGGAGTCACCTAGTGCAG,8730 fluorescence intensity (a.u.)
19,ATACAGGGAGGGTCCATTTGATTATTATCCAGCTGTTCTTCGGAGTCACCTAGTGCAG,13300 fluorescence intensity (a.u.)
20,CCCGGCCGCCGCGCCGCAGCTTTGACCGGCGTCCCATGGCCGGAGTCACCTAGTGCAG,9250 fluorescence intensity (a.u.)
21,CGAAAAGCGGCGGGTTCCCTTCCGTTTCCTGCCCAACCGCCGGAGTCACCTAGTGCAG,8130 fluorescence intensity (a.u.)
22,TGCCACCTCCACCGTGCGTCGCTCCTTTCCCGGCGTCTCCCGGAGTCACCTAGTGCAG,10300 fluorescence intensity (a.u.)
23,CTCCGTCCACCCCGCCGCACCGACACTCTCCTCCGCCATGCGGAGTCACCTAGTGCAG,9660 fluorescence intensity (a.u.)
24,AATTGCATCTTTTGTTTGTTGTTGCTTGTGCTTTGGTGTGCGGAGTCACCTAGTGCAG,9110 fluorescence intensity (a.u.)
25,ATCACAGGTTTGCTCCCATACATCTTTTGCATTTGTACTACGGAGTCACCTAGTGCAG,9630 fluorescence intensity (a.u.)
26,CGACACCCTATATACCCGATGTGACACGCCAAAACTTTACCGGAGTCACCTAGTGCAG,8140 fluorescence intensity (a.u.)
27,TCTGTGTTTTTCCTGTGGTCCAATCAAACGGTCATTCCTACGGAGTCACCTAGTGCAG,9050 fluorescence intensity (a.u.)

# Reformatted with tabs: part of the list above
row	Sequence	binding signal
8	TTAAACTTAAAGCAGTTTGACTTCGATCAAAGTCAAAACACGGAGTCACCTAGTGCAG	10700 fluorescence intensity (a.u.)
9	TCCCGTGGTCTCGCCACCCCGTCGTTCCTGCCGCTCGCGCCGGAGTCACCTAGTGCAG	9080 fluorescence intensity (a.u.)
18	TTGTTGGTCTCTCCATGACTCCACTTTTAAATGGATCTGCCGGAGTCACCTAGTGCAG	8730 fluorescence intensity (a.u.)

# Further results:

row,Sequence,binding signal
1,AGTGGCCCGACTCTCTCATCCCTCCGGCTTCCGGAATCCCCGGAGTCACCTAGTGCAG,9200 fluorescence intensity (a.u.)
2,GTGATTTGACTGTTCCTTTTTTATTAGAGGGTAAGTTGACCGGAGTCACCTAGTGCAG,9330 fluorescence intensity (a.u.)
3,GTACTATTTTTGTGATTATTTTTTTCTGCCGTTCAAACCACGGAGTCACCTAGTGCAG,8040 fluorescence intensity (a.u.)
4,ACCACCTTGCTCTTCCATCCCTAGCCACTTGGTATAATTGCGGAGTCACCTAGTGCAG,9870 fluorescence intensity (a.u.)
5,TTTTTTTCCTCTTTTTTAACGAGTTTACTCCTGTGACTCTCGGAGTCACCTAGTGCAG,9000 fluorescence intensity (a.u.)
6,TTGCGTGTGTTTTTGTTTTTTTTAAAGCCCACTTGAATCTCGGAGTCACCTAGTGCAG,8460 fluorescence intensity (a.u.)
7,TTGTCTGTTTATTCCGCTCAAGACTTTATTCAGTAGAATACGGAGTCACCTAGTGCAG,8630 fluorescence intensity (a.u.)
8,TTCTTTTGTTTGTCATATCTGTTTTAGCTGTAGTGTGTTTCGGAGTCACCTAGTGCAG,11600 fluorescence intensity (a.u.)
9,TCTCAGGTTTCTGCTTTCCTCTTGCACTGTCCGAGCTTATCGGAGTCACCTAGTGCAG,9740 fluorescence intensity (a.u.)
10,GGTTCCTGTTGAATCATCGGTCCGGTCTGGTTTTCTAGCTCGGAGTCACCTAGTGCAG,8350 fluorescence intensity (a.u.)
11,ACATTTTTTTCCCCGGTGACCACACTATATTCCTGGTCCACGGAGTCACCTAGTGCAG,9260 fluorescence intensity (a.u.)
12,TTAGCGATAGACCTCCTCATCTACATCTTCTCTCGCTATCCGGAGTCACCTAGTGCAG,10500 fluorescence intensity (a.u.)
13,ACCCGGCTCACATCACATCGCCTATATAGGGCCTTCTAGTCGGAGTCACCTAGTGCAG,8570 fluorescence intensity (a.u.)
14,GACGAACGGTCAAACATGTTTAAAAAAGTCAACGGCGTCACGGAGTCACCTAGTGCAG,13500 fluorescence intensity (a.u.)
15,ACAATCTTTTGTTGCCCATTCATCTGGGTTTTCTTCTGCTCGGAGTCACCTAGTGCAG,11400 fluorescence intensity (a.u.)
16,TTTGTGGGTTTTTTTGGCTGCTTCCATTTCGCAATCCACTCGGAGTCACCTAGTGCAG,13100 fluorescence intensity (a.u.)
17,CGACTTGTTGCCTCAAACAATTCCTGGTTATAAAACACCACGGAGTCACCTAGTGCAG,35500 fluorescence intensity (a.u.)
18,TATATTGGTGGTATTTTTAACATTTATTTTTACATATGTACGGAGTCACCTAGTGCAG,10100 fluorescence intensity (a.u.)
19,AAACTTATGCATAAAATATTTTCCTTGTCTCCTCAATCTTCGGAGTCACCTAGTGCAG,10700 fluorescence intensity (a.u.)
20,ATGTGCCTTTGTCTCTGTTTTTCTAGCGACCATTTTTAGACGGAGTCACCTAGTGCAG,8560 fluorescence intensity (a.u.)
21,AGACTCGGTTTCTAATTAAACATTTGCATACTTGTTTGTTCGGAGTCACCTAGTGCAG,9160 fluorescence intensity (a.u.)
22,GCGCGGTGGTGGTGGTGGTGGTTGCTGTGGTAGCGAGGGTCGGAGTCACCTAGTGCAG,13100 fluorescence intensity (a.u.)
23,TCACATCATTTTTCATACTAGGTGACAGCTTATTTAATACCGGAGTCACCTAGTGCAG,8420 fluorescence intensity (a.u.)
24,CACACACCTTTTTAATCCCGCCATCACCGCCTATCCCACGCGGAGTCACCTAGTGCAG,8700 fluorescence intensity (a.u.)
25,ATTGGACTCGTGGAAATCTTTCCATCCCGCTGCCTAGCTTCGGAGTCACCTAGTGCAG,9020 fluorescence intensity (a.u.)
26,AGCTATTCAATGCTCCTTTTGTTGAGTACTTGCCGTCTCACGGAGTCACCTAGTGCAG,9370 fluorescence intensity (a.u.)
27,GAGGTGTCTCACTGTCTCACTGTTGTTTGTCTTCCTCCTTCGGAGTCACCTAGTGCAG,11400 fluorescence intensity (a.u.)
